The source of these data is US20080279855A1, “Dna Replication Modulating Peptides, Nucleic Acids Encoding Them, and Their Use in Pharmaceutical Compositions” (CENTRE NATIONAL DE LA RECHERCHE SCIENTIFIQUE, priority 2004, published 2008).

Assay [1] deals with HsGem(80-212) (human) (UniProt O75496). Description: sucrose gradient centrifugation.
The target is the same in assay [2]. Description: sucrose gradient centrifugation, SDS-PAGE, Coomassie scan.

No constants are given. Whether binding was seen depends on the method and setting. Some binding calls cover weakened binding; strength is not graded here.

B1: HsGem(80-212) (protein)
chain: GVTQESFDLMIKENPSSQYWKEVAEKRRKALYEALKENEKLHKEIEQKDNEIARLKKENKELAEVAEHVQYMAELIERLNGEPLDNFESLDNQEFDSEEETVEDSLVEDSEIGTCAEGTVSSSTDAKPCI
For the molecule B1, the binding result in the assay with HsGem(80-212) (human) [1] and in the assay with HsGem(80-212) (human) [2] was “binds” in each case.
